Source: US20040024178A1, “Bacterial signal peptidase inhibitors and uses thereof” (priority 1999, published 2004)
Some results were stated once for a whole list of compounds, not compound by compound. *: point of attachment. Decanoyl = CCCCCCCCCC(=O)*; Octanoyl = CCCCCCCC(=O)*

target: T1, S. aureus SpsB (Staphylococcus aureus, UniProt P0A070); test: HPLC/MS substrate assay with SpsB; type: biochemical; conditions: S. aureus SpsB 1 μM, substrate 0.5 mM, 37° C.
T1 sequence (P0A070 1-191): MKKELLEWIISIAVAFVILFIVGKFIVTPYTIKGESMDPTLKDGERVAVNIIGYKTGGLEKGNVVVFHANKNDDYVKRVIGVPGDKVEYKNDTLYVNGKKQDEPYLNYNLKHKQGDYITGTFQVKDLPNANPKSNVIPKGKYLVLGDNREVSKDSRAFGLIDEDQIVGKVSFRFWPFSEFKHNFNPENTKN

Q: How did the “processing after 30 minutes” value turn out when Decanoyl-LTPTARAAPATEE-OH [Example E33] was run?
A: > 80%

Q: With Octanoyl-LTPTAKAASKIDD-OH [Example E11] as the substance, how does the “processing after 30 minutes” value read?
A: > 80%

Q: With Decanoyl-LTPTANAASKIDD-OH [Example E8] as the substance, how does the “processing after 30 minutes” value read?
A: > 80%
